Test results: the supplement of paper PMC8616043
Structures can show the parent of a compound that is named as a salt. The list shows a part of the results. Single values are uncertain here, since repeats match poorly.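 PR50, a 50-repeat proline–arginine dipeptide protein from C9ORF72 (ALS/FTD), was expressed by transfection in U-2 OS human cells stably carrying a GFP sensor with import and classical export signals. Per-well nuclear-minus-cytoplasm GFP, normalized between in-plate DMSO (low) and PR-only (high), was scored versus other test wells; compounds well below zero were hits reversing PR.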

Tested on: U-2 OS NCT-C biosensor cells expressing PR50
Experiment: Z-score of normalised NCT-C biosensor translocation index in PR50-expressing cells; higher = more nuclear biosensor (more disrupted nuclear export)
Details: 3 µM; 24 h

Compound | Z-score
NCc1c[nH]c(=S)n1[C@H]1CCc2c(F)cc(F)cc2C1 [Nepicastat hydrochloride] | inactive: 0.648
CNC1(C)C2CCC(C2)C1(C)C (stereo unspecified) [Mecamylamine hydrochloride] | inactive: 0.449
Nc1cc(F)ccc1NC(=O)c1ccc(CNC(=O)/C=C/c2cccnc2)cc1 [Chidamide] | inactive: -0.575
NS(=O)(=O)c1cc2c(cc1C(F)(F)F)NC(Cc1ccccc1)NS2(=O)=O (stereo unspecified) [Bendroflumethiazide] | inactive: -0.0282
CC(CN1c2ccccc2Sc2ccccc21)N(C)C (stereo unspecified) [Promethazine hydrochloride] | inactive: -0.193
CC(CN1c2ccccc2Sc2ccccc21)N(C)C (stereo unspecified) [Promethazine·HCl] | inactive: 1.92
O=C(c1ccc(OCCN2CCCCC2)cc1)c1c(-c2ccc(O)cc2)sc2cc(O)ccc12 [Raloxifene hydrochloride] | inactive: -0.805
O=C(c1ccc(OCCN2CCCCC2)cc1)c1c(-c2ccc(O)cc2)sc2cc(O)ccc12 [Raloxifene·HCl] | inactive: 2
CN(C)c1nc(N)c(C(=O)NC(=N)N)nc1Cl [5-(N,N-Dimethyl) amiloride hydrochloride] | inactive: 0.173
Cc1cc(Cc2cc(C)cc(C(C)(C)C)c2O)c(O)c(C(C)(C)C)c1 | inactive: -0.771
CCn1cc(C(=O)O)c(=O)c2cc(F)c(N3CCNCC3)cc21 [Norfloxacin] | inactive: 0.0911
N[C@H](C(=O)O)[C@H](Cc1ccccc1)C(=O)O [L-beta-threo-benzyl-aspartate] | inactive: -0.961
Cc1nc2c(OCc3ccccc3)cccn2c1CC#N | inactive: -0.586
CCOC(=O)C1=C(C)NC(C)=C(C(=O)OC)C1c1cccc([N+](=O)[O-])c1 (stereo unspecified) [Nitrendipine] | inactive: 0.339
CCCOC(=O)c1c(-c2ccccc2)nc(CC)c(C(=O)SCC)c1CCC | inactive: -0.101
CC(C)c1nc(CN(C)C(=O)N[C@H](C(=O)N[C@@H](Cc2ccccc2)C[C@H](O)[C@H](Cc2ccccc2)NC(=O)OCc2cncs2)C(C)C)cs1 [Ritonavir] | inactive: -0.441
COc1ccccc1OCCNCC(O)COc1cccc2[nH]c3ccccc3c12 (stereo unspecified) [Carvedilol] | inactive: -0.686
CC(C)[C@H]1CC[C@H](C(=O)N[C@H](Cc2ccccc2)C(=O)O)CC1 [Nateglinide] | inactive: 0.0838
COC(=O)/C(=C1/OC(=O)C(c2ccccc2)=C1O)c1ccccc1 [Vulpinic acid] | inactive: -0.935
COc1c(O)cc2c(c1O)[C@@H]1O[C@H](CO)[C@@H](O)[C@H](O)[C@H]1OC2=O [Bergenin] | inactive: -0.544
Nc1ncnc2c1ncn2[C@@H]1O[C@H](C[C@@H](N)CC[C@H](N)C(=O)O)[C@@H](O)[C@H]1O [Sinefungin] | inactive: -1.86
CCN1CCCC1CNC(=O)c1cc(S(=O)(=O)CC)c(N)cc1OC (stereo unspecified) [Amisulpride] | inactive: -0.361
S=P(N1CC1)(N1CC1)N1CC1 [Thiotepa] | inactive: -0.0511
O=C1CCc2c(ccc3ccccc23)O1 [Splitomicin] | inactive: -0.669

Taken from above:
CC(C)c1nc(CN(C)C(=O)N[C@H](C(=O)N[C@@H](Cc2ccccc2)C[C@H](O)[C@H](Cc2ccccc2)NC(=O)OCc2cncs2)C(C)C)cs1 [Ritonavir] | Z-score: inactive: -0.441
CCCOC(=O)c1c(-c2ccccc2)nc(CC)c(C(=O)SCC)c1CCC | Z-score: inactive: -0.101
CC(CN1c2ccccc2Sc2ccccc21)N(C)C (stereo unspecified) [Promethazine·HCl] | Z-score: inactive: 1.92
Nc1ncnc2c1ncn2[C@@H]1O[C@H](C[C@@H](N)CC[C@H](N)C(=O)O)[C@@H](O)[C@H]1O [Sinefungin] | Z-score: inactive: -1.86

Remaining list, next part

Compound | Z-score
Cn1c(=O)c2c(ncn2C)n(C)c1=O [Caffeine] | inactive: 1.32
Cc1c(OCC(F)(F)F)ccnc1C[S+]([O-])c1nc2ccccc2[nH]1 (stereo unspecified) [Lansoprazole] | inactive: 0.403
Cc1cc(CN)cc(C)c1NC(=O)c1ccc(-c2cc(Cl)ccc2Cl)o1 | inactive: 2.06
CCCCCCCC/C=C\CCCCCCCC(=O)O [Oleic Acid] | inactive: 0.0481
O=C(O[C@@H]1C[C@@H]2C[C@H]3C[C@H](C1)N2CC3=O)c1c[nH]c2ccccc12 [Dolasetron mesylate hydrate] | inactive: -0.83
O=C(O[C@@H]1C[C@@H]2C[C@H]3C[C@H](C1)N2CC3=O)c1c[nH]c2ccccc12 [Dolasetron] | inactive: 0.151
CC(C)(C)NC(=O)[C@@H]1CN(Cc2cccnc2)CCN1C[C@@H](O)C[C@@H](Cc1ccccc1)C(=O)N[C@H]1c2ccccc2C[C@H]1O [Indinavir] | inactive: 0.00351
CC(C)(C)NC(=O)[C@@H]1CN(Cc2cccnc2)CCN1C[C@@H](O)C[C@@H](Cc1ccccc1)C(=O)N[C@H]1c2ccccc2C[C@H]1O [Indinavir sulfate salt hydrate] | inactive: -0.0338
COc1ccc2cc1Oc1ccc(cc1)C[C@H]1c3c(cc4c(c3Oc3cc5c(cc3OC)CCN(C)[C@@H]5C2)OCO4)CCN1C [Cepharanthine] | inactive: -0.798
CC(=O)O[C@H]1Cc2ccccc2N(C(N)=O)c2ccccc21 | inactive: -1.66
COc1ccc(-c2coc3cc(O)cc(O)c3c2=O)cc1 [Biochanin A] | inactive: -0.27
CC(C)(C)c1cc(/C=C(\C#N)C(N)=S)cc(C(C)(C)C)c1O [Tyrphostin AG 879] | inactive: -1.21
COC1=CC(=O)C[C@@H](C)[C@]12Oc1c(Cl)c(OC)cc(OC)c1C2=O [Griseofulvin] | inactive: 1.32
COC1=CC(=O)C[C@@H](C)[C@]12Oc1c(Cl)c(OC)cc(OC)c1C2=O [(+)-Griseofulvin] | inactive: 0.0504
CCC(=O)NCC[C@@H]1CCc2ccc3c(c21)CCO3 [Ramelteon] | inactive: -0.68
C[C@H](O)C(=O)C1=Nc2c(nc(N)[nH]c2=O)NC1 [Sepiapterin] | inactive: 0.295
CN(C)CCC(c1ccc(Cl)cc1)c1ccccn1 (stereo unspecified) [Chlorpheniramine Maleate] | inactive: 1.26
CN1Cc2sccc2C(c2ccc(O)c(O)c2)C1 (stereo unspecified) | inactive: 1.01
Cc1onc(-c2ccccc2)c1C(=O)N[C@@H]1C(=O)N2[C@@H]1SC(C)(C)[C@@H]2C(=O)O [Oxacillin sodium salt monohydrate] | inactive: 0.235
CC(=O)C1=C(C)N(c2cccc(C(F)(F)F)c2)C(=O)N[C@@H]1c1ccc(C#N)nc1 | inactive: -0.246
CCCC(CCC)C(=O)O [Valproic acid] | active: -2.38
CCCC(CCC)C(=O)O [Valproic acid sodium] | inactive: 1.53
CN(C)CCCC1(c2ccc(F)cc2)OCc2cc(C#N)ccc21 (stereo unspecified) [Citalopram hydrobromide] | inactive: -0.583
Nn1nnc2ccccc21 [1-Aminobenzo triazole] | inactive: -0.376

Compound | Z-score
COc1cc2c[n+](C)c3c4cc5c(cc4ccc3c2cc1OC)OCO5 [Nitidine chloride] | inactive: -1
COc1ccccc1CNCCCCCCNCCCCCCCCNCCCCCCNCc1ccccc1OC [Methoctramine tetrahydrochloride] | inactive: -0.335
CCOC(=O)C1=CN(Cc2ccccc2)C=C(C(=O)OCC)C1c1ccccc1 | inactive: 0.795
Nc1nc(/C(=C/CC(=O)O)C(=O)N[C@@H]2C(=O)N3C(C(=O)O)=CCS[C@H]23)cs1 [Ceftibuten] | inactive: 0.157
CCC(=O)O[C@]1(C(=O)SCF)[C@H](C)C[C@H]2[C@@H]3C[C@H](F)C4=CC(=O)C=C[C@]4(C)[C@@]3(F)[C@@H](O)C[C@@]21C [Fluticasone Propionate] | inactive: 0.0945
CN1CCC(=C2c3ccccc3CCn3c(C=O)cnc32)CC1 [Alcaftadine] | inactive: 0.864
NS(=O)(=O)c1nn2cc(-c3ccccc3)nc2s1 | inactive: 2.48
CN(C)CCOC(=O)C(c1ccccc1)C1(O)CCCC1 (stereo unspecified) [Cyclopentolate] | inactive: -0.122
CC1=CC(=O)C2=C(C)CC[C@@H]3[C@H](OC(=O)[C@H]3C)[C@@H]12 [Leucomisine] | inactive: 0.431
O=C1O[C@H]([C@@H](O)CO)C(O)=C1O [L-Ascorbic Acid] | inactive: -0.618
Clc1ccc(C(c2ccccc2Cl)C(Cl)Cl)cc1 (stereo unspecified) [Mitotane] | inactive: -0.341
Cc1cccc(C)c1OCC(=O)N[C@@H](Cc1ccccc1)[C@@H](O)C[C@H](Cc1ccccc1)NC(=O)[C@H](C(C)C)N1CCCNC1=O [Lopinavir] | inactive: -0.571
O=C1Nc2ccc(Cl)cc2[C@@](C#CC2CC2)(C(F)(F)F)O1 [Efavirenz] | inactive: 0.17
Nc1ccc(C(=O)O)c(O)c1 [4-Aminosalicylic Acid] | inactive: 0.488
CC(=O)Oc1ccc(C(c2ccc(OC(C)=O)cc2)c2ccccn2)cc1 [Bisacodyl] | inactive: 0.435
COc1cccc(OC)c1OCCNCC1CSc2ccccc2O1 (stereo unspecified) [Benoxathian hydrochloride] | inactive: 4.25
Cc1ccc(C(=O)c2cc(/C=C/C(=O)NO)n(C)c2)cc1 | active: -2.27
CCCCS(=N)(=O)CCC(N)C(=O)O [L-Buthionine- sulfoximine] | inactive: 4.53
COc1cc(O)c(C(=O)/C=C/c2ccccc2)c(OC)c1 [Flavokawain B] | inactive: 0.325
CCCc1nn(C)c2c(=O)[nH]c(-c3cc(S(=O)(=O)N4CCN(C)CC4)ccc3OCC)nc12 [Sildenafil Citrate] | inactive: -0.106
COc1cc(CNC(=O)CCCCCCC(C)C)ccc1O [Dihydrocapsaicin] | inactive: -0.542
CC(NCCc1ccc(O)cc1)C(O)c1ccc(O)cc1 (stereo unspecified) [Ritodrine hydrochloride] | inactive: 0.493
Cc1nc2c([nH]1)c(=O)n(C)c(=O)n2Cc1ccco1 [Furafylline] | inactive: 0.193
